Assay results reported in PubChem BioAssay AID2551 (National Center for Advancing Translational Sciences (NCATS), 2010).
About 17,000 (5.5%) of roughly 310,000 compounds were called active. Inconclusive means that the source gave no clear call. Such entries were picked first, then a sample of the others. Calls come from the whole dose curve; as a rule, active = well fitted inhibition curve with a large enough effect; inconclusive = small, poorly fitted or top-dose-only effect, or effect the other way; inactive = no such curve, though single readings can be large or run the other way. Potencies beside an inconclusive call are fits to weak or partial responses and may not hold up.

Protein sequences, listed by entry. Tags and fused reporters are not part of them. Lines headed by an entry give the natural chain unless they say otherwise; changes in a name come on top.
UniProt P51450: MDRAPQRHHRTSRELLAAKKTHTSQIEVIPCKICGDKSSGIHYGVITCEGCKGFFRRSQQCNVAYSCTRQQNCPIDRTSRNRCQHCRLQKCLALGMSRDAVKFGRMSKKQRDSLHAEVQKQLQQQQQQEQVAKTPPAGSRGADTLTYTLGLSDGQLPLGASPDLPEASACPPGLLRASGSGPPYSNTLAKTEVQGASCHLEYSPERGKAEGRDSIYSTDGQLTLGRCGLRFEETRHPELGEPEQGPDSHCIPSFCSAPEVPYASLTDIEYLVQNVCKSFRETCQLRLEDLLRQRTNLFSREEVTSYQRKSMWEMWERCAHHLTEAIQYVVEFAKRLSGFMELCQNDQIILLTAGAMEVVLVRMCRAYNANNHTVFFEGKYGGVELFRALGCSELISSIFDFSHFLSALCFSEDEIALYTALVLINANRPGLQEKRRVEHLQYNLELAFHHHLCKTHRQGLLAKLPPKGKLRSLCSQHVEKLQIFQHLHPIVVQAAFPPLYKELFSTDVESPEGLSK

These compounds were tested against Nuclear receptor ROR-gamma (Mus musculus) (UniProt P51450) (assay: qHTS for inhibitors of ROR gamma transcriptional activity). Conditions: Drosophila S2 Gal4-RORgamma UAS-luciferase reporter, 20 h; activity change, negative = inhibition: at 53.6 µM (top of the series).
Method in brief: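 Drosophila S2 cells stably expressing Gal4-DBD/mouse RORγ fusion under metallothionein promoter plus UAS-luciferase; compound 1 h, then 700 uM CuSO4 induction for 20 h at ambient temperature; inhibition read as reduced luminescence.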
% is set by controls: 0 for no effect and ±100 for the full control effect; potency is the fitted concentration of half-maximal effect.
Note: nearly all actives have a fitted effect of over 60% in size.

Row | Compound | Potency | activity change, negative = inhibition
1 | CC1=CC(C)(C)NC(=S)N1c1cccc(C)c1 | active: 4.47 µM | –
2 | COC(=O)C1=C(C)N(C)C(=O)NC1c1ccc(O)c(Cl)c1 (stereo not drawn) | inconclusive: 35.5 µM [activator, single point] | –
3 | CC1C/C(=N\Nc2ccc(S(N)(=O)=O)cc2[N+](=O)[O-])CC(C)(C)C1 (stereo not drawn) | inconclusive: 11.2 µM [inhibitor, single point] | –
4 | O=C(c1ccc(CS(=O)c2cccc(Cl)c2)o1)N1CCCCCC1 (stereo not drawn) | inconclusive: 17.8 µM [activator, partial curve] | –
5 | CC1=NN(C(=O)Cc2ccc([N+](=O)[O-])cc2)C(O)(C(F)(F)C(F)(F)F)C1 (stereo not drawn) | active: 3.55 µM | –
6 | CCCS(=O)(=O)N1CCN=C1SCc1cccc2ccccc12 | inconclusive: 35.5 µM [activator, single point] | –
7 | Nc1c[n+](N2CCOCC2)no1 | – | inactive: 11.6%
8 | O=C(Nc1nc(-c2cccs2)c(C(=O)C(F)(F)F)s1)c1ccco1 | inconclusive: 7.94 µM [activator, partial curve] | –
9 | Cc1ccc(C(=O)n2c(-c3ccccc3)cnc2SCC(=O)Nc2ccc(C)cc2C)cc1 | inconclusive: 12.6 µM [activator, partial curve] | –
10 | CC(C)C(=O)Nc1ccc(NC(=O)c2ccc(COc3ccccc3)cc2)cc1 | – | inactive: 26.8% [at 1.91 µM]
11 | O=C(Cc1ccccc1Cl)Nc1nc2ccccc2[nH]1 | active: 7.08 µM | –
12 | COc1ccc(SC[C@H](Cc2ccccc2)N2CCN(CCc3ccccc3)CCC2=O)cc1 | inconclusive: 12.6 µM [activator, single point] | –
13 | CC(C)CC(=O)N1CCN(S(=O)(=O)c2ccc3ccccc3c2)CC1 | inconclusive: 11.2 µM [activator, partial curve] | –
14 | COC(=O)C/C=C\[C@@H](C)[C@@H](/C=N\O[C@@H](C)c1cn([C@H]2COC[C@H]2O)nn1)OC | – | inactive: 1.75% [at 10 µM]
15 | ClC(/C=N/n1cnnc1)=C/c1ccccc1 | – | inactive: -17.8%
16 | Cc1[nH]c2ccccc2c1C(=O)CN1CCCCC1CCO (stereo not drawn) | – | inactive: -27.9%
17 | O=c1[nH]c(C2CCN(S(=O)(=O)c3ccc(C(F)(F)F)cc3)CC2)nc2c1nnn2Cc1ccc(F)cc1 | inconclusive: 11.2 µM [activator, partial curve] | –
18 | C/C(=N\Nc1cccc2cccnc12)c1ccc(C)cc1 | inconclusive: 35.5 µM [inhibitor, single point] | –
19 | N/C(=N\OC(=O)c1ccccc1Cl)c1ccccc1 | inconclusive: 12.6 µM [inhibitor, single point] | –
20 | COc1ccc(C(=O)CC(=O)C(=O)Nc2c(C)cccc2C)cc1 | active: 6.31 µM | –
21 | O=C(O)C1CCC(NSc2ccccc2[N+](=O)[O-])CC1 (stereo not drawn) | – | inactive: -23.3%
22 | Nc1nc(=S)c2ncn(C3CCCC3)c2[nH]1 | inconclusive: 35.5 µM [inhibitor, single point] | –
23 | COC(=O)c1ccc(CSc2nnc(N)s2)cc1 | – | inactive: 7.74% [at 10 µM]
24 | COc1cccc(C(=O)Oc2c(CN3CCOCC3)cc(Cl)c3cccnc23)c1 | active: 2.82 µM | –

Row | Compound | Potency | activity change, negative = inhibition
25 | COc1ccc(CN=C2NN=C(c3ccccc3)CS2)cc1 | active: 2 µM | –
26 | COC(=O)COc1ccc(S(=O)(=O)Nc2ccc3c(c2)OCCO3)cc1Cl | inconclusive: 22.4 µM [activator, single point] | –
27 | COc1ccc(C(=O)NC(C)CCc2ccccc2)c(O)c1 (stereo not drawn) | inconclusive: 35.5 µM [activator, single point] | –
28 | CCOC(=O)c1ccc(OCC(=O)c2ccc(O)cc2O)cc1 | active: 0.251 µM | –
29 | CC(C)c1nnc(NC(=O)C2CCCCC2)s1 | inconclusive: 11.2 µM [activator, partial curve] | –
30 | Cc1ccc(NC(=S)N2CCCCC2)cc1C | active: 4.47 µM | –
31 | Cc1ccc(NC(=O)c2ccccc2F)nc1 | inconclusive: 35.5 µM [inhibitor, single point] | –
32 | CC(C)COc1ccc(C(=O)N(Cc2ccco2)C2CCS(=O)(=O)C2)cc1 (stereo not drawn) | inconclusive: 17.8 µM [activator, single point] | –
33 | CN(C)Cc1ccccc1-c1cc(NCc2ccccc2)ncn1 | inconclusive: 35.5 µM [inhibitor, single point] | –
34 | CN(C)Cc1ccccc1-c1cc(-n2ccnc2)ncn1 | – | inactive: 16.9%
35 | CC(C)(C)c1ccc(C2=CSC3=NCCN23)cc1 | active: 10 µM | –
36 | Cc1cc(C)c(C)c(S(=O)(=O)NCCCN2CCCC2=O)c1C | inconclusive: 0.112 µM [inhibitor, full curve] | –
37 | Cc1sc(N/N=C/c2cc([N+](=O)[O-])ccc2O)nc1-c1ccccc1 | active: 0.282 µM | –
38 | O=C(Nc1ccc(F)cc1)Nc1ccc(N2CCOCC2)c2nonc12 | inconclusive: 15.8 µM [activator, single point] | –
39 | O=C(CCCc1ccccc1)NCc1cn2ccsc2n1 | inconclusive: 7.94 µM [activator, partial curve, poor fit] | –
40 | CC1CCN(S(=O)(=O)c2cccc(C(=O)NC3CCCCC3)c2)CC1 | inconclusive: 12.6 µM [activator, partial curve] | –
41 | CN1C(=O)c2cccc3c(S(=O)(=O)NCCc4ccccc4)ccc1c23 | inconclusive: 20 µM [activator, single point] | –
42 | Cc1ccc(OCC(=O)Nn2cnc3ccccc32)cc1 | inconclusive: 11.2 µM [activator, partial curve] | –
43 | CCCN(CCO)CCCc1ccccc1 | inconclusive: 6.31 µM [inhibitor, single point] | –
44 | Cc1ccc(C(=O)N2N=C(c3ccc(Br)cc3)CC2c2ccccc2O)cc1 (stereo not drawn) | – | inactive: 35.7%
45 | COc1ccccc1NS(=O)(=O)c1cccc(NC(=O)c2[nH]c(C)c(C(C)=O)c2C)c1 | – | inactive: 14.8%
46 | O=C(O)CCC(=O)N1CCN(c2cccc(Cl)c2)CC1 | inconclusive: 12.6 µM [activator, single point] | –
47 | CCc1cccc(CC)c1NC(=S)NC(C)c1ccccc1 (stereo not drawn) | active: 3.98 µM | –
48 | O=C(Nc1nc(COc2ccccc2)cs1)C12CC3CC(CC(C3)C1)C2 | inconclusive: 31.6 µM [inhibitor, single point] | –

Whole records, looked up by structure. Order of values: Potency	activity change, negative = inhibition
`CC(C)c1nnc(NC(=O)C2CCCCC2)s1` as listed: inconclusive: 11.2 µM [activator, partial curve]	–
`CN(C)Cc1ccccc1-c1cc(NCc2ccccc2)ncn1` as listed: inconclusive: 35.5 µM [inhibitor, single point]	–
`O=C(O)CCC(=O)N1CCN(c2cccc(Cl)c2)CC1` as listed: inconclusive: 12.6 µM [activator, single point]	–
